The results in this text go back to PubChem BioAssay AID445 (National Center for Advancing Translational Sciences (NCATS), 2006).

What is called AC50 is the midpoint of the concentration-response curve, whichever way the signal moves.

This is one part of the list. The main result of the screen is listed elsewhere. These columns were measured beside it and carry no call. Most of these compounds were active or inconclusive in the main read-out, so they are no random draw. Words in brackets tell the shape of the fitted curve; partial curves, single points and poor fits give uncertain potencies.

The experiment is described as follows: IkB Signaling. The settings on record: ABC-DLBCL IkBa-CBG/CBR dual luciferase ratio (green luciferase fused to IkBa over red control in OCI-Ly3 lymphoma cells), 4 h; measured here: control luc red channel unless noted. The procedure, abridged:
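Curves were fitted separately to fusion (green), unfused (red) and ratio luminescence, then classed by r2, magnitude and activity. Cells: OCI-Ly3, 4 h compound plus doxycycline at 37C; 10 uM MG-132 defined full response.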
Take `CCOc1ccc(-c2nnc(SCC(=O)c3ccccc3)n2-c2ccccc2)cc1`: the half-maximal activity concentration (AC50) was 3.98 µM [falling, full curve].

Consider `Cn1cccc1-c1cc2n(n1)CCC(=O)N2CCCC(=O)NCc1ccc(F)cc1`, for which the AC50 was 1.58 µM [falling, full curve, poor fit].

Regarding `Cc1cc(=O)[nH]c2nnc(SCc3ccc(C(F)(F)F)cc3)n12`, the AC50 was 3.98 µM [rising, partial curve].

For the molecule `Cc1ccc(NC(=O)c2ncoc2-c2ccco2)cc1Cl`, the AC50 was 3.16 µM [rising, single point].

Turning to `COc1ccc2cc(CNc3ccc(OC)c(OC)c3)c(=O)n(CC(=O)Nc3ccccc3F)c2c1`, the half-maximal activity concentration (AC50) was 15.8 µM [falling, partial curve].

As for `CCOC(=O)c1[nH]c(C)c(CCC(=O)Nc2cccc(SC)c2)c1C`, the concentration at half-maximal activity (AC50) is 15.8 µM [falling, partial curve, poor fit].

In the case of `COc1cccc(NS(=O)(=O)c2ccc3[nH]cc(C(=O)NC4CC4)c(=O)c3c2)c1`, the AC50 was 10 µM [falling, partial curve].

On to `CCOc1ccc(OCC)c(NC(=O)CCc2nc3cccnc3n2Cc2cccs2)c1`, for which the AC50 is 25.1 µM [falling, single point].

For `COc1ccc(-c2nc(C)c(CCNC(=O)c3c(F)cccc3F)s2)cc1`, the half-maximal activity concentration (AC50) is 39.8 µM [falling, single point].

With `COC(=O)N1CCCc2cc(S(=O)(=O)N3CCN(c4ccccc4)CC3)ccc21`, the AC50 is 10 µM [falling, partial curve, poor fit].

Consider `COc1cc(Cl)c(C)cc1NC(=O)CSc1nc2c(c(=O)[nH]1)CCCC2`, for which the half-maximal activity concentration (AC50) was 20 µM [falling, single point].

For the molecule `COc1cc(OC)c(NC(=O)n2ncc3cc(Cl)ccc32)cc1Cl`, the concentration at half-maximal activity (AC50) is 39.8 µM [falling, single point].

Take `COc1ccc(C2CC(=O)c3c([nH]c(C(=O)OC4CCCCCC4)c3C)C2)cc1` (stereo unspecified): the half-maximal activity concentration (AC50) was 20 µM [falling, partial curve, poor fit].

`COc1ccc(OC)c(NC(=O)CSC2=Nc3ccccc3C3=NC(CC(=O)NCc4ccc(F)cc4)C(=O)N23)c1` (stereo unspecified): the AC50 is 3.98 µM [falling, single point].

In the case of `O=C(Nc1ccccc1O)c1cc(S(=O)(=O)N2CCCC2)ccc1Cl`, the AC50 was 20 µM [falling, single point].

In the case of `COc1ccc2c(c1)c1c(c(=O)n(-c3ccc(OC)c(OC)c3)c(=O)n1CC(=O)N1CCCC1)n2C`, the half-maximal activity concentration (AC50) was 0.126 µM [rising, full curve].

For `Cc1ccc(CNC(=O)CSc2ncc(S(=O)(=O)c3ccc(C)c(Cl)c3)c(=O)[nH]2)cc1`, the AC50 is 15.8 µM [falling, partial curve].

Take `O=C(Nc1ccc2[nH]c(=O)c(=O)[nH]c2c1)c1cccc(F)c1`: the concentration at half-maximal activity (AC50) is 0.0316 µM [rising, full curve].

On to `Cc1nc2nc(SCC(=O)NCCc3ccc(Cl)cc3)nn2c(C)c1Cc1ccccc1Cl`, for which the concentration at half-maximal activity (AC50) was 25.1 µM [falling, single point].

Take `Cc1ccccc1C1=CCN(c2ncc(NC(=O)c3ccc(Cl)cc3)cc2C(=O)O)CC1`: the AC50 was 5.01 µM [falling, partial curve, poor fit].

Regarding `Cc1nc2c(-c3ccccc3)c(C)nn2c(C)c1CCC(=O)Nc1ccccc1F`, the AC50 is 31.6 µM [falling, partial curve].

`CCOc1ccc(NC(=O)c2sc3ccccc3c2Cl)cc1`: the AC50 was 0.0794 µM [rising, full curve, poor fit].

In the case of `COc1ccc(C2CC(=O)Nc3c2c(=O)n(C)c2nc4ccccc4n32)cc1` (stereo unspecified), the AC50 was 3.98 µM [rising, single point].

Turning to `CS(=O)(=O)n1nc(-c2ccco2)nc1NCc1ccccc1Cl`, the AC50 is 15.8 µM [falling, partial curve, poor fit].

As to `COc1ccc(C(=O)c2cn(Cc3cccc(C)c3)c3cc4c(cc3c2=O)OCO4)cc1`, the AC50 was 31.6 µM [falling, partial curve].

Take `CCOC(=O)c1[nH]c(C)c(C(=O)NCc2cccc(OC)c2)c1C`: the AC50 is 7.94 µM [falling, partial curve].

On to `COC(=O)Cc1cc(=O)[nH]c(Nc2nc3ccccc3o2)n1`, for which the AC50 is 7.94 µM [falling, full curve].

Turning to `COc1cccc(-c2nc(CS(=O)(=O)CC(=O)NCCCN3CCc4ccccc4C3)c(C)o2)c1`, the AC50 was 10 µM [falling, partial curve].

On to `Cc1ccc(NS(=O)(=O)c2ccc3c(c2)[C@H]2C=CC[C@H]2[C@@H](c2ccc(F)cc2)N3)cc1C`, for which the AC50 is 15.8 µM [falling, partial curve].

For `Cn1c(=O)c2c(SCC(=O)NCc3ccc(F)cc3)nc(-c3ccccc3Cl)nc2n(C)c1=O`, the concentration at half-maximal activity (AC50) was 6.31 µM [falling, partial curve].

As to `O=C(CSC1=NCCS1)Nc1ccnc2ccccc12`, the half-maximal activity concentration (AC50) is 2.51 µM [falling, full curve].

With `COc1ccc(CCNC(=O)C2CCCN(Cc3nc(-c4ccccc4C)oc3C)C2)cc1OC` (stereo unspecified), the AC50 is 10 µM [falling, partial curve].

Turning to `COc1cc(NC(=O)CCS(=O)(=O)c2nc(-c3ccc4c(c3)OCO4)cc(C(F)(F)F)n2)cc(OC)c1OC`, the concentration at half-maximal activity (AC50) was 10 µM [falling, partial curve].

For the molecule `COCCCN1C(=O)c2[nH]nc(-c3ccccc3O)c2C1c1ccc(OCc2ccccc2)cc1` (stereo unspecified), the AC50 is 10 µM [falling, partial curve].

On to `C1=C(N2CCOCC2)/C(=C/c2nc3ccccc3[nH]2)CC1`, for which the AC50 was 6.31 µM [falling, partial curve].

Take `CCCCNC(=O)C1CCC(CNS(=O)(=O)c2ccc(C)cc2)CC1` (stereo unspecified): the AC50 is 3.98 µM [rising, single point].

On to `Cc1nc(NC(=O)c2c(-c3ccccc3)c(-c3ccccc3)nn(C)c2=O)sc1C`, for which the AC50 was 3.16 µM [falling, single point].

In the case of `Cc1cc(C)c(NC(=O)CCn2c(=O)c3cccn3c3ccccc32)c(C)c1`, the AC50 is 12.6 µM [falling, partial curve].

As for `CCN1CCN(C(c2ccc(SC)cc2)c2c(O)cc(C)n(Cc3ccco3)c2=O)CC1` (stereo unspecified), the AC50 was 39.8 µM [rising, single point] [measured here: IkB-luc green channel].

As to `Oc1ccc(-c2nc(-c3ccccc3)c(-c3ccc(Br)cc3)[nH]2)cc1`, the AC50 was 12.6 µM [falling, partial curve].

Turning to `O=C(COC(=O)C(Cc1c[nH]c2ccccc12)NC(=O)c1ccc(Cl)cc1)c1ccc(Cl)cc1` (stereo unspecified), the AC50 is 15.8 µM [falling, partial curve].

Take `COc1ccc(-c2cc(=O)c3cc(OCC(=O)OC(C)C)ccc3o2)cc1`: the AC50 was 31.6 µM [falling, single point].

As for `COc1ccccc1-c1nnc2sc(-c3ccc(N(C)C)cc3)nn12`, the AC50 was 0.251 µM [rising, partial curve].

Regarding `Cc1ccc(Cn2c(SCC(=O)NCc3ccccc3Cl)nc3ccsc3c2=O)cc1`, the AC50 was 10 µM [rising, partial curve].

Consider `CCOC(=O)c1cc2c(=O)n3ccccc3nc2n(Cc2ccco2)c1=NC(=O)c1cccc(F)c1`, for which the half-maximal activity concentration (AC50) was 3.98 µM [falling, full curve].

Take `COc1cc(NC(=O)CCCc2nnc3n(CC(C)C)c(=O)c4sccc4n23)cc(OC)c1`: the AC50 is 39.8 µM [falling, single point].

In the case of `CC(C)c1ccc(NS(=O)(=O)c2ccc3[nH]cc(C(=O)NCC4CCCO4)c(=O)c3c2)cc1` (stereo unspecified), the AC50 is 7.94 µM [falling, partial curve].

With `CCN(C(=O)c1ccc(C(C)(C)C)cc1)c1nnc(Cn2nnc3ccccc32)s1`, the AC50 is 7.94 µM [falling, partial curve].

On to `CN(C)S(=O)(=O)c1ccc2c(c1)N(CC(=O)Nc1ccc(F)cc1)C(=O)CS2`, for which the AC50 was 12.6 µM [falling, partial curve].

`Cc1cccc(NC(=O)c2sc3nc4c(cc3c2N)CN(C(C)C)CC4)c1`: the AC50 was 15.8 µM [falling, partial curve].

As for `O=c1oc2ccc3ccccc3c2cc1-c1nnc(-c2ccccc2)o1`, the AC50 was 25.1 µM [falling, single point].

Take `Cc1cccc(N2CCN(C(=O)CN3C(=O)COc4ccc(S(=O)(=O)N5CCOCC5)cc43)CC2)c1C`: the AC50 was 31.6 µM [falling, single point].

With `CCC1CCCCN1C(=O)CSc1nc(-c2ccc(OC)c(OC)c2)cc(C(F)(F)F)n1` (stereo unspecified), the AC50 was 20 µM [falling, partial curve].

With `Cc1ccc(Cl)cc1N1CCN(C(=O)CCCn2c(=O)[nH]c3ccc(Br)cc3c2=O)CC1`, the AC50 is 7.94 µM [falling, partial curve].

As to `CC(C)Oc1cccc(C2CC(=O)Nc3cc4c(cc32)OCO4)c1` (stereo unspecified), the AC50 is 0.251 µM [rising, partial curve].

For the molecule `CCOC(=O)c1cccc2c1-c1ccccc1/C2=N/O`, the AC50 was 15.8 µM [falling, partial curve].

On to `O=C(NCCS(=O)(=O)N1CCN(c2ccc(F)cc2)CC1)c1cccc(C(F)(F)F)c1`, for which the AC50 was 10 µM [falling, partial curve].

With `Cc1ccc(NC(=O)c2c(NC(=O)Cc3ccccc3)sc3c2CCCC3)cc1`, the AC50 is 3.98 µM [falling, partial curve].

Consider `CCOc1ccc(CCNC(=O)CN2C(=O)COc3ccc(S(=O)(=O)N4CCCCCC4)cc32)cc1`, for which the concentration at half-maximal activity (AC50) was 31.6 µM [falling, partial curve].

As for `CC(=O)Nc1ccc(NC(=O)CCSCCc2ccccn2)cc1`, the AC50 was 0.158 µM [rising, full curve, poor fit].

Take `O=C(NCc1cccnc1)c1ccc(COc2ccccc2Br)o1`: the AC50 is 20 µM [falling, partial curve].
